# No constants are given. Whether binding was seen depends on the method and setting. Binding can be weak; no strength is given.
# The chains behind the UniProt entries cited, without tags or fusion partners. Where a name states a change or a piece, a line headed by the entry shows the natural chain unless it says otherwise.
# UniProt U6KIP1: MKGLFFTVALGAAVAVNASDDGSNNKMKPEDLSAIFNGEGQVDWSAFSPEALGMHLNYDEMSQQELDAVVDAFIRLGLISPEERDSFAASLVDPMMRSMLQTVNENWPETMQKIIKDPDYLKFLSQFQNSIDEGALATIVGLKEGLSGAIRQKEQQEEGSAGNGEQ
# Target: GST-EtAMA1 (recombinant Eimeria tenella apical membrane antigen 1) (Eimeria tenella) (UniProt F8V414)
# Assay: pull-down; Pierce GST Protein Interaction Pull-Down Kit; GST-EtAMA1 immobilised on glutathione-agarose as bait, His-EtEsp added as prey; eluate on 12% SDS-PAGE, western blot with anti-rEtAMA1 and anti-rEtEsp; both purified
substance,measurement,value
His-EtEsp (recombinant E. tenella Eimeria-specific protein) (from UniProt U6KIP1),binding,binds

# — paper PMC7382093
